# Reference: PubChem BioAssay AID504834 (National Center for Advancing Translational Sciences (NCATS), 2011)
# The whole screen tested about 320,000 compounds, of which about 22,000 (6.9%) were called active. This list was built around the results that the source calls inconclusive (neither active nor inactive); the mix of calls is not that of the screen. The call rests on the fitted dose curve; in most records, active means well fitted inhibition curve with a large enough effect; inconclusive means small, poorly fitted or top-dose-only effect, or another doubt; inactive means no such curve, though single readings can be large or run the other way. Potencies beside an inconclusive call are fits to weak or partial responses and may not hold up.
# Test: Primary qHTS for delayed death inhibitors of the malarial parasite plastid, 96 hour incubation
# Conditions: P. falciparum luciferase reporter growth; series mostly up to 28.7 µM
# How it was run: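 Luminescence readout: decreased luciferase signal marks inhibited growth of reporter-expressing P. falciparum in infected red cells (2% hematocrit, 0.05% parasitemia final), exposed to compound two generations (96 h, 37 C, 5% CO2).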
# Potency means the concentration at half of the fitted maximal effect.
row,Structure (SMILES),Potency
1,Cc1c(C(=S)NC(=O)C2CC2)c(=O)n(-c2ccccc2)n1C,active: 14.7 µM
2,CCOc1ccc(NC(=O)c2ccc3c(SCC(=O)O)c4c(nc3c2)CCCC4)cc1,inactive
3,O=S(=O)(Cc1cc(Sc2ccccc2)nc(-c2ccccc2)n1)c1ccccc1,"inconclusive: 10.4 µM [inhibitor, single point]"
4,O=c1cc2c(n[nH]1)-c1ccccc1CC2,inactive
5,FC(F)(F)c1ccc(N2CCN(c3ncnc4c3nnn4Cc3ccccc3Cl)CC2)cc1,"inconclusive: 18.5 µM [inhibitor, single point]"
6,O=C(O)c1ccc(CN2C(=O)CSC2=S)cc1,"inconclusive: 4.15 µM [inhibitor, partial curve]"
7,COCCNC(=O)C(c1cccs1)N(C(=O)Cn1nnc2ccccc21)c1cccc(C)c1 (stereo not given),"inconclusive: 3.29 µM [inhibitor, partial curve, poor fit]"
8,Cc1ccccc1-c1cc(C(=O)O)nn1CC1CC(c2cccc([N+](=O)[O-])c2)=NO1 (stereo not given),"inconclusive: 1.17 µM [inhibitor, partial curve, poor fit]"
9,COCCN(C(=O)COC(=O)c1cc2ccccc2cc1OC)c1c(N)n(Cc2ccccc2)c(=O)[nH]c1=O,"inconclusive: 9.28 µM [inhibitor, single point]"
10,O=C(CSc1nnc(-c2cccnc2)o1)Nc1nccs1,inactive
11,CC(C)Oc1c(Br)cc(Br)cc1/C=N/NC(N)=S,"inconclusive: 10.4 µM [inhibitor, single point]"
12,COc1cccc(OC)c1C(=O)NC(=O)Nc1c(F)cc(F)cc1F,"inconclusive: 10.4 µM [inhibitor, single point]"
13,Cn1cc(S(=O)(=O)N2CCOCC2)cc1C(=O)NCCc1ccccc1,inactive
14,CCOc1ccc(N(C(=O)c2snc(C(N)=O)c2N)C(CC)C(=O)NC2CCCC2)cc1 (stereo not given),"inconclusive: 11.7 µM [inhibitor, single point]"
15,O=C(Nc1nnc(-c2ccc(F)cc2)s1)Nc1ccccc1F,inactive
16,COc1ccc2oc(C(=O)Nc3nccs3)c(C)c2c1,inactive
17,COc1ccc(C2CC(c3cccs3)=NN2C(=O)c2ccc(Br)o2)cc1 (stereo not given),"inconclusive: 0.329 µM [inhibitor, full curve]"
18,O=C(CSc1ccccn1)Nc1nc2c(ccc3ccccc32)s1,"inconclusive: 13.1 µM [inhibitor, single point]"
19,CC(=O)c1ccc(-c2ccc(C(=O)NC3CCCCCC3)o2)cc1,"inconclusive: 9.28 µM [inhibitor, single point]"
20,Cc1ccc(C(=O)Nc2sc3c(c2C(=O)O)CCCC3)o1,inactive

# 2 compounds drawn at random from those above:
row,Structure (SMILES),Potency
14,CCOc1ccc(N(C(=O)c2snc(C(N)=O)c2N)C(CC)C(=O)NC2CCCC2)cc1 (stereo not given),"inconclusive: 11.7 µM [inhibitor, single point]"
15,O=C(Nc1nnc(-c2ccc(F)cc2)s1)Nc1ccccc1F,inactive
